These are yes or no findings as the source states them, for the method shown. Some entries that bind do so weakly or less than the wild type.
Key:
[1] = biological target: recombinant human LOX-1 (hLOX-1) protein, full length (human) (UniProt P78380); test: Western blot, native recombinant hLOX-1
[2] = biological target: recombinant human LOX-1 (hLOX-1) protein, full length (human) (UniProt P78380); test: avidity ELISA (4M urea) and Western blot on recombinant hLOX-1
[3] = biological target: recombinant human LOX-1 (hLOX-1) protein, full length (human) (UniProt P78380); test: modified ELISA on recombinant hLOX-1, avidity by 4M urea wash
[4] = biological target: human LOX-1 expressed on the surface of plasmid hLOX-1 transfected 293T cells (human) (UniProt P78380); test: flow cytometry, 1 ug/ml antibody on hLOX-1 transfected 293T cells, FITC goat anti-human IgG

binding [1]	binding [2]	binding [3]	binding [4]	Binder
binds	binds	binds	–	anti-hLOX-1 monoclonal antibody 6A10 (hybridoma) (antibody, IgM, V domains shown) VH: EVQLQQSGPELVKPGASVKISCKASGYSFTGYYMHWVKQSHVKSLEWIGRINPYNGATSYNQNFKDKASLTVDKSSSTAYMELHSLTSEDSAVYYCAPDVAYWGQGTLVTVSA VL: DIKMTQSPSSMYASLGERVTITCKASQDINSYLSWFQQKPGKSPKTLIYRANRLVDGVPSRFSGSGSGQDYSLTISSLEYEDMGIYYCLQYDEFPPWTFGGGTKLEIK
–	–	–	binds	recombinantly expressed anti-LOX-1 (IgG1) antibody, clone 6A10 (antibody, V domains shown) VH: EVQLQQSGPELVKPGASVKISCKASGYSFTGYYMHWVKQSHVKSLEWIGRINPYNGATSYNQNFKDKASLTVDKSSSTAYMELHSLTSEDSAVYYCAPDVAYWGQGTLVTVSA VL: DIKMTQSPSSMYASLGERVTITCKASQDINSYLSWFQQKPGKSPKTLIYRANRLVDGVPSRFSGSGSGQDYSLTISSLEYEDMGIYYCLQYDEFPPWTFGGGTKLEIK
binds	binds	binds	–	anti-hLOX-1 monoclonal antibody 12D9 (hybridoma) (antibody, IgM, V domains shown) VH: QIQLVQSGPELKKPGETVKISCKASGYTFTNYGMNWVKQTPGKGLKWMGWINTYTGEPTYTDDFKGRFAFSLETSASTASLQIINLKNEDTATYFCARGGDFYAMDYWGQGTSVTVSS VL: NIVMTQSPKSMSMSVGERVTLSCKASENVGTYVSWYQQKPEQSPKLVIFGASNRNTGVPDRFTGSGFATDFTLTISSVQAEDLGDYHCGQSSNYPYTFGGGTKLEIK
